PubChem BioAssay AID1259279, Sanger Institute | 2017

- Purpose: 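Kinases that colorectal cancer cells need to survive, alone or with drugs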 (primary screen)
- Cell system: LS180 human colorectal cancer cells
- Reagents: siRNA pool against human genes
- Challenge: anchor drug BYL719 at 1 µM, cetuximab at 5 µg/ml or trametinib at 10 nM, or DMSO vehicle only
- Read-out: 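Cell viability versus a non-targeting pool, as a fraction and as a robust z-score from replicate means, plus a synergy score for each of three drugs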
- Reading the numbers: viability z-score, no drug: higher = more viable cells after knock-down
- Active means: 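a knock-down is called active, meaning essential, if its viability z-score in vehicle alone falls below -3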
- Meaning of the calls: active = essential (knock-down alone cuts viability); inactive = no change without drug
Shown is one part, drawn at random, of 794 deposited reagents. In the full data, 11 (1.4%) are marked active. 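Calls reflect knock-down alone in the vehicle arm, not drug synergy.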 Entries without a mark were called inactive. Not all columns of the deposit are shown. Not stated in the record: the amount of reagent, the time to read-out.

ABL1 [SID135620610] — viability z-score, no drug = 0.246
BUB1B [SID152154799] — viability z-score, no drug = -0.182
MAP3K13 [SID56478694] — viability z-score, no drug = 0.271
MAGI3 [SID152154544] — viability z-score, no drug = 0.462
RPS6KA1 [SID152152227] — viability z-score, no drug = -0.149
ATP23 [SID152151481] — viability z-score, no drug = 0.378
PIK3R1 [SID135620606] — viability z-score, no drug = 0.86
MAPK15 [SID152151405] — viability z-score, no drug = -1.06
TYRO3 [SID56478561] — viability z-score, no drug = -0.912
CDKN1C [SID56478604] — viability z-score, no drug = 0.0102
TRPM6 [SID56478975] — viability z-score, no drug = 0.86
PRKCI [SID152150879] — viability z-score, no drug = 0.86
PIK3CA [SID135620605] — viability z-score, no drug = 0.791
DCK [SID56479088] — viability z-score, no drug = -0.853
GNAS [SID152155794] — viability z-score, no drug = -0.111
CDK6 [SID56478600] — viability z-score, no drug = 0.86
SRC [SID56478553] — viability z-score, no drug = 0.163
STK40 [SID56479025] — viability z-score, no drug = -0.00278
IP6K3 [SID135621241] — viability z-score, no drug = -1.17
CDK2 [SID56478596] — viability z-score, no drug = 0.86
PRKCD [SID56478673] — viability z-score, no drug = -2.85
IRAK4 [SID134309837] — viability z-score, no drug = 0.854
TPD52L3 [SID56479192] — viability z-score, no drug = 0.656
PFKFB4 [SID152152940] — viability z-score, no drug = 0.431
GOLGA5 [SID134315128] — viability z-score, no drug = 0.854
DLG3 [SID135621778] — viability z-score, no drug = 0.86
PINK1 [SID152149500] — viability z-score, no drug = 0.617
NUP62 [SID135622326] — viability z-score, no drug = -0.665
